Results deposited as PubChem BioAssay AID743448 (Peter MacCallum Cancer Centre, 2014)
This is a random part of the 106 reagents, under one of the conditions tested. 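Calls are per line and drug panel including etoposide, not vorinostat-specific; gene picks needed hits in two or more extra lines with vorinostat versus etoposide.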

Aim: 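Third-round triage of 106 confirmed candidates in four colon lines under two drugs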 (follow-up of hits)
Cell system: four human colon cancer cell lines: HCT116-VR (vorinostat-resistant HCT116 derivative), SW480, SW620 and LIM1215
Reagent: siRNA pool against human genes, 40 nM siRNA pool
Duration: drug added two days after transfection, read one day later
Treatment: vorinostat 2.5 µM on one half of each plate, etoposide 5 µM on the other half
Cell line and drug panel: LIM1215 cells with vorinostat
Detection: 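Caspase luminescence and viability fluorescence, each expressed relative to mock transfection and also as robust z-scores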
Direction: caspase ratio to mock: higher = more caspase activity than mock; viability ratio to mock: higher = more live cells than mock; caspase robust z-score: higher = more caspase activity, more apoptosis; viability robust z-score: higher = more live cells
Active means: 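Hit means caspase ratio to mock at least 1.6, or viability ratio to mock at most 0.75; wells with strong death in the absence of drug get no call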
Meaning of the calls: active = caspase or viability hit in this panel; inactive = no change, or unhealthy well

| gene knocked down | caspase ratio to mock | viability ratio to mock | caspase robust z-score | viability robust z-score | Outcome |
| --- | --- | --- | --- | --- | --- |
| SH3GLB2 (GeneID 56904) | 1.37 | 0.96 | -0.94 | 0.36 | inactive |
| SIN3A (GeneID 25942) | 3.85 | 1 | 2.23 | 0.6 | active |
| SERTAD1 (GeneID 29950) | 1.83 | 0.78 | -0.4 | -0.96 | active |
| THOC5 (GeneID 8563) | 1.58 | 0.87 | -0.6 | -0.34 | inactive |
| RBM42 (GeneID 79171) | 1.86 | 0.82 | -0.29 | -0.73 | active |
| AQR (GeneID 9716) | 6.53 | 0.52 | 5.77 | -2.92 | inactive |
| TFAP2D (GeneID 83741) | 3.46 | 1.21 | 1.66 | 2.17 | active |

The list goes on (2 carried over from the part before).
| gene knocked down | caspase ratio to mock | viability ratio to mock | caspase robust z-score | viability robust z-score | Outcome |
| --- | --- | --- | --- | --- | --- |
| AQR (GeneID 9716) | 6.53 | 0.52 | 5.77 | -2.92 | inactive |
| TFAP2D (GeneID 83741) | 3.46 | 1.21 | 1.66 | 2.17 | active |
| NUP205 (GeneID 23165) | 3.53 | 0.55 | 1.88 | -2.69 | active |
| MSANTD1 (GeneID 345222) | 1.97 | 0.78 | -0.21 | -0.96 | active |
| VAX1 (GeneID 11023) | 1.52 | 0.87 | -0.75 | -0.31 | inactive |
| NPC1L1 (GeneID 29881) | 1.93 | 0.98 | -0.21 | 0.48 | active |
| MRPL19 (GeneID 9801) | 1.45 | 1.02 | -0.83 | 0.76 | inactive |
| IQSEC1 (GeneID 9922) | 1.89 | 1.09 | -0.29 | 1.32 | active |
| NUP93 (GeneID 9688) | 3.34 | 0.61 | 1.64 | -2.29 | inactive |
| CNOT3 (GeneID 4849) | 1.58 | 1.15 | -0.68 | 1.75 | inactive |
| TOX4 (GeneID 9878) | 2.74 | 0.9 | 0.86 | -0.1 | active |
| POLR2K (GeneID 5440) | 1.88 | 0.84 | -0.32 | -0.58 | active |
| RLN3 (GeneID 117579) | 1.78 | 1 | -0.39 | 0.59 | active |
| EIF2B2 (GeneID 8892) | 1.93 | 0.86 | -0.21 | -0.43 | active |
| EIF2S1 (GeneID 1965) | 1.98 | 0.69 | -0.05 | -1.66 | active |
